These are yes or no findings as the source states them, for the method shown. Binding seen in cells or lysates may run through a third protein. Here binding means that the protein was enriched with, or labelled near, the bait; the list need not be complete.
Tests used:
[1] = molecular target: HA-Hsp90β^S226A/S255A (human) (UniProt P08238); experiment: affinity purification with mass spectrometry; SILAC duplex; anti-HA co-IP as in the label-free experiment, WT from heavy cells and AA from light cells pooled after elution, four replicates, H/L ratios aligned on Hsp90β
[2] = molecular target: HA-Hsp90β^S226A/S255A (human) (UniProt P08238); experiment: affinity purification with mass spectrometry; label-free; anti-HA co-IP from lysates of transfected HEK293T-Hsp90βKO19 cells (1% NP40, 20 mM HEPES pH 7.5, 50 mM KCl, 5 mM MgCl2), 4 °C overnight, protein G agarose, LC-MS/MS; untagged WT Hsp90β as negative control; done twice with 3 replicates each

By UniProt entry, the sequences of proteins in these tests, tags left out.
UniProt P25685: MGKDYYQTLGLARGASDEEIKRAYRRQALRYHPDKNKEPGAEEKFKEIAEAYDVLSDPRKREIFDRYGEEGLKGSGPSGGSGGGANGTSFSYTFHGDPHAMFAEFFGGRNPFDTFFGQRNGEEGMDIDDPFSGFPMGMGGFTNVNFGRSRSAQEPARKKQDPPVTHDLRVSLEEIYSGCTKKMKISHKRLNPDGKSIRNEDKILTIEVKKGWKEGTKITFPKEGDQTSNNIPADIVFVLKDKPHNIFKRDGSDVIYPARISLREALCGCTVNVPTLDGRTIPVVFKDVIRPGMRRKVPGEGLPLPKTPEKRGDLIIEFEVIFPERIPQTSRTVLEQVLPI

binding [1]: binds
binding [2]: binds
Substance: Hsp40 (DNAJB1) (from UniProt P25685 1-340)

— publication PMC8304327
